Source: the supplement of paper PMC12823440, “Inhibitors supercharge kinase turnover through native proteolytic circuits” (Nature, 2025)
Counter-ions that a name gives are not always drawn. This is one part of the list. The calls rarely recur for the same compound in another form.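 Kinases were expressed as nanoluciferase fusions in K562 cells and luminescence was read every 4 h between 2 and 18 h as percent of control, DMSO set to 100% and a positive control to 0%. A time point counts as decreased when the signal drops significantly (2 sigma). The hit call is the authors' own, does not follow from the count of time points alone, and its rule is not shown.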

Sequences of proteins named here, by UniProt entry; tags and fusion partners are left off. A change or cut given only in a name is not applied to a line headed by its entry.
UniProt O15530: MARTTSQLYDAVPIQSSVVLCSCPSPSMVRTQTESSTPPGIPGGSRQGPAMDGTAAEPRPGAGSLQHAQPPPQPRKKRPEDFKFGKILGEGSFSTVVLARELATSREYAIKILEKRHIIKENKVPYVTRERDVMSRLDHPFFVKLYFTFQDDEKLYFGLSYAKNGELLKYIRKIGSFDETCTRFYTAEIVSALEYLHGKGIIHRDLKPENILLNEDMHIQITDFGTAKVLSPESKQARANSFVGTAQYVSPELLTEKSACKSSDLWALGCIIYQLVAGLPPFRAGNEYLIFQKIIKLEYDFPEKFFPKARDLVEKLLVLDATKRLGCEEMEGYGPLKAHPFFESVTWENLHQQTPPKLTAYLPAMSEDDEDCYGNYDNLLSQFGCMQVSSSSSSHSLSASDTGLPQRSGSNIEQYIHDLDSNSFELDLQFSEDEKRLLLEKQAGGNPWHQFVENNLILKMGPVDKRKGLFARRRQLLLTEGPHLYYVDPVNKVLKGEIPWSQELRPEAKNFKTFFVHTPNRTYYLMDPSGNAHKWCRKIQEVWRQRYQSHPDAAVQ
UniProt Q9UBF8: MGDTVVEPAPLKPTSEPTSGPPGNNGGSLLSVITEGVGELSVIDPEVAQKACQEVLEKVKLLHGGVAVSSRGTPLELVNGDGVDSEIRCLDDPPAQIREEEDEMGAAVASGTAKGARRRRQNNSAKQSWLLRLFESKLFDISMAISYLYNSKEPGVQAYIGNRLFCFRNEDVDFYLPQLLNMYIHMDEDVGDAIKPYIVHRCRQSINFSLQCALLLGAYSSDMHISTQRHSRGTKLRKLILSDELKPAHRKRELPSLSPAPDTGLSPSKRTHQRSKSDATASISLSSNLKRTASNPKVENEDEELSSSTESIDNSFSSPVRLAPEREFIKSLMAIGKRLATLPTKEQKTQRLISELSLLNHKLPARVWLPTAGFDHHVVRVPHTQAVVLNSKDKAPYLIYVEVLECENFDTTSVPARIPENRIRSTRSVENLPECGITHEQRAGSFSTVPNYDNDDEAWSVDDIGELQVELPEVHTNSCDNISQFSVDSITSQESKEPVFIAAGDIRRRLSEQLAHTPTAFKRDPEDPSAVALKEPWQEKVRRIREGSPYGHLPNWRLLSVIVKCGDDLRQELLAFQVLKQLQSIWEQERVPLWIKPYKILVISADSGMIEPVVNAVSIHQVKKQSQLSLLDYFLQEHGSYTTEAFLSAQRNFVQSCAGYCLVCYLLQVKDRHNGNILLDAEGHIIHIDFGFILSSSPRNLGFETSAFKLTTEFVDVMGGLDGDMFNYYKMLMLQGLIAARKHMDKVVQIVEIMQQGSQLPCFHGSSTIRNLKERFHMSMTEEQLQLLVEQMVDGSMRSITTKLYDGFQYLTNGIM
UniProt Q13131: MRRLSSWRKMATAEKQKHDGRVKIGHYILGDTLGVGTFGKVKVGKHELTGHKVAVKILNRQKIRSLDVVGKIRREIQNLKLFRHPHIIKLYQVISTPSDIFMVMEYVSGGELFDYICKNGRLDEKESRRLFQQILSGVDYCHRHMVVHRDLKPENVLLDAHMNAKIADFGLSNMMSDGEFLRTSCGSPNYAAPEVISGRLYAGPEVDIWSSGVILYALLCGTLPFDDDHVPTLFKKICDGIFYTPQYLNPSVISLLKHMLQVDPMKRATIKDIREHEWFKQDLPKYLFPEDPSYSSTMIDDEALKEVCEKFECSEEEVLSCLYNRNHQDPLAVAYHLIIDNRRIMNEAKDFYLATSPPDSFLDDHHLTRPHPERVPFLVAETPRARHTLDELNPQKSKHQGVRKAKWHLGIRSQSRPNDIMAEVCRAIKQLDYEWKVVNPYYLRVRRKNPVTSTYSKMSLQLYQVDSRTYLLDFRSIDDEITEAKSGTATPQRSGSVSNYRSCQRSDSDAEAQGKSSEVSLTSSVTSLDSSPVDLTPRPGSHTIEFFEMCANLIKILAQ
UniProt Q05397, whole entry, looked up: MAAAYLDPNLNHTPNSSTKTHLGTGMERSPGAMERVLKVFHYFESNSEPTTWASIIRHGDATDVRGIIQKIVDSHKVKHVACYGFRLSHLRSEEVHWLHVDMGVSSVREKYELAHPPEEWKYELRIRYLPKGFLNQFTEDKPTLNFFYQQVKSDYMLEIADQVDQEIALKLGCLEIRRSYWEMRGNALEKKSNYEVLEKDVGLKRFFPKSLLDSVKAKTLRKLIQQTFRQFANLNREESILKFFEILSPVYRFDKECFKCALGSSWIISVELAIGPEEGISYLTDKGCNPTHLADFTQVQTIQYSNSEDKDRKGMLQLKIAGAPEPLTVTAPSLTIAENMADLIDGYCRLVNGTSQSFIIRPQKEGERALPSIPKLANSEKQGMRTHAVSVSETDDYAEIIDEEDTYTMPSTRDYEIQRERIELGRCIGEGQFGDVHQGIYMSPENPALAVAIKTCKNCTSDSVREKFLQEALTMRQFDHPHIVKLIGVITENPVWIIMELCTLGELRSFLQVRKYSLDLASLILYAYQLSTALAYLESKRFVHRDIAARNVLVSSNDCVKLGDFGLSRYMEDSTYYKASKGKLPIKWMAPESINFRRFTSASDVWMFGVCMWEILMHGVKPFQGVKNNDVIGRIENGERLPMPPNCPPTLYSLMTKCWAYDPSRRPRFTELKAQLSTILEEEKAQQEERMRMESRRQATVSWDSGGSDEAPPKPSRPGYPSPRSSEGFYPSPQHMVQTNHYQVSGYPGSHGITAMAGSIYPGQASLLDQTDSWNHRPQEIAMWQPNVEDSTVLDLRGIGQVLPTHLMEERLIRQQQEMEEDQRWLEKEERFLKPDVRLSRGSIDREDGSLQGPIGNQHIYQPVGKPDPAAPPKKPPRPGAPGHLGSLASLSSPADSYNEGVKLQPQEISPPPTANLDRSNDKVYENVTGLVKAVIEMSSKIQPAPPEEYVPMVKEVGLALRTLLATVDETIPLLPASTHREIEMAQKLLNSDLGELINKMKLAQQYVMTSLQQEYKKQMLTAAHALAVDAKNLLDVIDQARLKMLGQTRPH
UniProt P07949, whole entry, looked up: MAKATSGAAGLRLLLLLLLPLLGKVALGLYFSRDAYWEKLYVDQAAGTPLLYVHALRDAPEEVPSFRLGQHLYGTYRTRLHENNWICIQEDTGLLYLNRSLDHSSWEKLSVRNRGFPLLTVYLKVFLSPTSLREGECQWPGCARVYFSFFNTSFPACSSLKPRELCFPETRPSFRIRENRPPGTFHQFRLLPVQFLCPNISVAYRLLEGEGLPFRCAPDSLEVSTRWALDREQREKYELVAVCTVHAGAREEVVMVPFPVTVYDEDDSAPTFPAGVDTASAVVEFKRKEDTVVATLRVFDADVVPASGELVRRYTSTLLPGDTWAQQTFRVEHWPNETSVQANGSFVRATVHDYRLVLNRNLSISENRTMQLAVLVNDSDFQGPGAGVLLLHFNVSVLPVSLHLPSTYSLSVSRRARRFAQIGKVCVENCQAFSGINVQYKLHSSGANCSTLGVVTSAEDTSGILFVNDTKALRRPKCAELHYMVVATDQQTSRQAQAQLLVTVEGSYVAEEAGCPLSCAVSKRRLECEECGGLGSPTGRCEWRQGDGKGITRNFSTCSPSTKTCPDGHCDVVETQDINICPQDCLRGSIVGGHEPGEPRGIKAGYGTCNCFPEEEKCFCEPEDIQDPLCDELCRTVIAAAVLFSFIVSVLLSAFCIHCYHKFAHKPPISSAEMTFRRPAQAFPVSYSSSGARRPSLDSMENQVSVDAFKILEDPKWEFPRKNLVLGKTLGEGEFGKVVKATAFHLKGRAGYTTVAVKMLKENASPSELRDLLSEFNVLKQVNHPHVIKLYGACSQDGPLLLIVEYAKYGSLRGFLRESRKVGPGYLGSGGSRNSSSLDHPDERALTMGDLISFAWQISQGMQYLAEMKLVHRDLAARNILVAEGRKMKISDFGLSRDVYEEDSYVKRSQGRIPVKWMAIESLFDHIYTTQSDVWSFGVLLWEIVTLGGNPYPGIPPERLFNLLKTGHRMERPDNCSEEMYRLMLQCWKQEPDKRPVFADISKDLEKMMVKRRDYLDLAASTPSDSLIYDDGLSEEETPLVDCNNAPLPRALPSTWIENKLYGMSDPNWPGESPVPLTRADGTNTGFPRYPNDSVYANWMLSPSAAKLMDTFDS
UniProt P07949, whole entry M918T, looked up: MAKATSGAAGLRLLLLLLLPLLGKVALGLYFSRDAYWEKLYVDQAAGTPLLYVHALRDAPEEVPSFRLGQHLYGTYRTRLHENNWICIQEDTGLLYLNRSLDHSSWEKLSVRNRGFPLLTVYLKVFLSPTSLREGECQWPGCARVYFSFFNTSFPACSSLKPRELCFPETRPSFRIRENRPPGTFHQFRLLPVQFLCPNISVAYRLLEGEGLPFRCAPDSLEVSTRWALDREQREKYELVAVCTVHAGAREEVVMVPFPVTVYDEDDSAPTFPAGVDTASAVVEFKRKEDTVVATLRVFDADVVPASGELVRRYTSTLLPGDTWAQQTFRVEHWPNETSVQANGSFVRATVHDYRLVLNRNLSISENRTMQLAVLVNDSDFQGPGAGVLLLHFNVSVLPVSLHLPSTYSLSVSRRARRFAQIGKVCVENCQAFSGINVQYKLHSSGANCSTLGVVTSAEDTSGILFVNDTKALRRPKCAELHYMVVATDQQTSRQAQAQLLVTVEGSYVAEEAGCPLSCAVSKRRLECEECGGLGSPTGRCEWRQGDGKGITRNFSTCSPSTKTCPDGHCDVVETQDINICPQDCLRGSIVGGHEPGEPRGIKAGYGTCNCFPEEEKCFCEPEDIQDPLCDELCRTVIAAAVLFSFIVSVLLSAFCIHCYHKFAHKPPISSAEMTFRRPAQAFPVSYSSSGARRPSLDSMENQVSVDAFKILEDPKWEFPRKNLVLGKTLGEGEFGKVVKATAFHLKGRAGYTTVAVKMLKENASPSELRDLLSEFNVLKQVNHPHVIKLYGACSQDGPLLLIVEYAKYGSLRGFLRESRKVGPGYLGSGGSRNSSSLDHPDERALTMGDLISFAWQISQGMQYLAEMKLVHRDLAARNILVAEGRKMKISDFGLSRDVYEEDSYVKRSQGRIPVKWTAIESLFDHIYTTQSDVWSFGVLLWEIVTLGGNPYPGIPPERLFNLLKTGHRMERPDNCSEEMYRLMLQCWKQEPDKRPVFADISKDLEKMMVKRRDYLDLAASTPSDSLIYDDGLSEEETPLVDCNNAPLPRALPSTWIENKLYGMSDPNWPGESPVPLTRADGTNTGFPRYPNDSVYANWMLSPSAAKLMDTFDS
UniProt Q15418, whole entry: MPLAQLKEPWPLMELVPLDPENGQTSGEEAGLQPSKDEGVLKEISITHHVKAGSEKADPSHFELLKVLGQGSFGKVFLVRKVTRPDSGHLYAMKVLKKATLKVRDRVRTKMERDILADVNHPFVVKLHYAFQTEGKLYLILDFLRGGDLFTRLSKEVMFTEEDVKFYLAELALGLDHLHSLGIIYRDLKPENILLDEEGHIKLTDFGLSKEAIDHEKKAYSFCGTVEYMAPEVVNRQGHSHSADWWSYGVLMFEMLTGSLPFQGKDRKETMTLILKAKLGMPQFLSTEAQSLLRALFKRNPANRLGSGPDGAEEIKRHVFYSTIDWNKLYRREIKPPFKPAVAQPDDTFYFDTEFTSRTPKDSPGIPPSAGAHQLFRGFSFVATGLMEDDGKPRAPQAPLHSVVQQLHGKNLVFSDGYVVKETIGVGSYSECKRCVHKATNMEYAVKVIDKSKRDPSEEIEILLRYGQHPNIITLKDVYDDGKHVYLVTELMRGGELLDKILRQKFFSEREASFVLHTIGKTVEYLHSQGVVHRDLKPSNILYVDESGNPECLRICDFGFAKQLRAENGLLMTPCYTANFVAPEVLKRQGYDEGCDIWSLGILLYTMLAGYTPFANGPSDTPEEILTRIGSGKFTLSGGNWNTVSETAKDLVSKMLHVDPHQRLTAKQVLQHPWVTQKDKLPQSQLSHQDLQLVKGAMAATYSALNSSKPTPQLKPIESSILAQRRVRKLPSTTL
UniProt Q9Y6E0: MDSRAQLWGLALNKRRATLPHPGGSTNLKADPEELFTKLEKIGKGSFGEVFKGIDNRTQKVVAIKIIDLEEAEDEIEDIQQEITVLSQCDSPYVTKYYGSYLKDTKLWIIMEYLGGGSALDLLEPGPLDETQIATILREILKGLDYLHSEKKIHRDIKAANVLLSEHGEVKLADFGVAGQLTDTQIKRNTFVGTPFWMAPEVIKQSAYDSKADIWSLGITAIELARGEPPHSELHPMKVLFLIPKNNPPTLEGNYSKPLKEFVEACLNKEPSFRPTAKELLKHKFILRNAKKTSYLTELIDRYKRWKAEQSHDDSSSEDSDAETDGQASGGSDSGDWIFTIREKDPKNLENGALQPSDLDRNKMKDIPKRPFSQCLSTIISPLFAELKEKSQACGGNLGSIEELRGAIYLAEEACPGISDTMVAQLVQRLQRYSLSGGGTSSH

Key:
Assay in all cases: kinase-Nluc reporter destabilization hit call (1 = scored as downregulated) (binary); higher = compound decreases kinase abundance
Details in all cases: K562, 2-18 h
PDPK1 = PDPK1 (UniProt O15530)
PIK4CA = PIK4CA (UniProt P42356)
PIK4CB = PIK4CB (UniProt Q9UBF8)
PLK1 = PLK1 (UniProt P53350)
PRKAA1 = PRKAA1 (UniProt Q13131)
PRKCA = PRKCA (UniProt P17252)
PTK2 = PTK2 (UniProt Q05397)
PTK2B = PTK2B (UniProt Q14289)
RAF1 = RAF1 (UniProt P04049)
[1] = target: RAF1_S257L (clone: RAF1_mut) (UniProt P04049)
RET = RET (UniProt P07949)
[2] = target: RET_M918T (clone: RET_mut) (UniProt P07949)
RIOK1 = RIOK1 (UniProt Q9BRS2)
RIPK1 = RIPK1 (UniProt Q13546)
RIPK2 = RIPK2 (UniProt O43353)
ROR2 = ROR2 (UniProt Q01974)
RPS6KA1 = RPS6KA1 (UniProt Q15418)
SPHK1 = SPHK1 (UniProt Q9NYA1)
SRC = SRC (UniProt P12931)
STK24 = STK24 (UniProt Q9Y6E0)

Measured: kinase-Nluc reporter destabilization hit call

CNC(=O)c1ccc(Nc2ncc(C(F)(F)F)c(NCc3nccnc3N(C)S(C)(=O)=O)n2)cc1 [Defactinib]
inactive: PDPK1; 10 µM 0 | PIK4CA; 10 µM 0 | PIK4CB; 10 µM 0 | PLK1; 10 µM 0 | PRKAA1; 10 µM 0 | PRKCA; 10 µM 0 | PTK2; 10 µM 0 | PTK2B; 10 µM 0 | RAF1; 10 µM 0 | [1]; 10 µM 0 | RET; 10 µM 0 | [2]; 10 µM 0 | RIOK1; 10 µM 0 | RIPK1; 10 µM 0 | RIPK2; 10 µM 0 | ROR2; 10 µM 0 | RPS6KA1; 10 µM 0 | SPHK1; 10 µM 0 | SRC; 10 µM 0 | STK24; 10 µM 0

CNC(=O)c1ccc(Nc2ncc(C(F)(F)F)c(NCc3nccnc3N(C)S(C)(=O)=O)n2)cc1 [Defactinib (hydrochloride)]
inactive: PDPK1; 10 µM 0 | PIK4CA; 10 µM 0 | PIK4CB; 10 µM 0 | PLK1; 10 µM 0 | PRKAA1; 10 µM 0 | PRKCA; 10 µM 0 | PTK2; 10 µM 0 | PTK2B; 10 µM 0 | RAF1; 10 µM 0 | [1]; 10 µM 0 | RET; 10 µM 0 | [2]; 10 µM 0 | RIOK1; 10 µM 0 | RIPK1; 10 µM 0 | RIPK2; 10 µM 0 | ROR2; 10 µM 0 | RPS6KA1; 10 µM 0 | SPHK1; 10 µM 0 | SRC; 10 µM 0 | STK24; 10 µM 0

Cc1cccc(-c2[nH]c(CNc3ccccc3F)nc2-c2ccc3ncnn3c2)n1 [Vactosertib (Hydrochloride)]
inactive: PDPK1; 2.5 µM 0 | PIK4CA; 2.5 µM 0 | PIK4CB; 2.5 µM 0 | PLK1; 2.5 µM 0 | PRKAA1; 2.5 µM 0 | PRKCA; 2.5 µM 0 | PTK2; 2.5 µM 0 | PTK2B; 2.5 µM 0 | RAF1; 2.5 µM 0 | [1]; 2.5 µM 0 | RET; 2.5 µM 0 | [2]; 2.5 µM 0 | RIOK1; 2.5 µM 0 | RIPK1; 2.5 µM 0 | RIPK2; 2.5 µM 0 | ROR2; 2.5 µM 0 | RPS6KA1; 2.5 µM 0 | SPHK1; 2.5 µM 0 | SRC; 2.5 µM 0 | STK24; 2.5 µM 0

Clc1ccc(C2(c3ccc(-c4cn[nH]c4)cc3)CCNCC2)cc1 [AT7867 (dihydrochloride)]
inactive: PDPK1; 2.5 µM 0 | PIK4CA; 2.5 µM 0 | PIK4CB; 2.5 µM 0 | PLK1; 2.5 µM 0 | PRKAA1; 2.5 µM 0 | PRKCA; 2.5 µM 0 | PTK2; 2.5 µM 0 | PTK2B; 2.5 µM 0 | RAF1; 2.5 µM 0 | [1]; 2.5 µM 0 | RET; 2.5 µM 0 | [2]; 2.5 µM 0 | RIOK1; 2.5 µM 0 | RIPK1; 2.5 µM 0 | RIPK2; 2.5 µM 0 | ROR2; 2.5 µM 0 | RPS6KA1; 2.5 µM 0 | SPHK1; 2.5 µM 0 | SRC; 2.5 µM 0 | STK24; 2.5 µM 0

CCN(CC)CC(=O)Nc1c(C)cccc1C [Lidocaine]
inactive: PDPK1; 10 µM 0 | PIK4CA; 10 µM 0 | PIK4CB; 10 µM 0 | PLK1; 10 µM 0 | PRKAA1; 10 µM 0 | PRKCA; 10 µM 0 | PTK2; 10 µM 0 | PTK2B; 10 µM 0 | RAF1; 10 µM 0 | [1]; 10 µM 0 | RET; 10 µM 0 | [2]; 10 µM 0 | RIOK1; 10 µM 0 | RIPK1; 10 µM 0 | RIPK2; 10 µM 0 | ROR2; 10 µM 0 | RPS6KA1; 10 µM 0 | SPHK1; 10 µM 0 | SRC; 10 µM 0 | STK24; 10 µM 0

CCCCCCCCc1ccc(CCC(N)(CO)CO)cc1 [Fingolimod]
inactive: PDPK1; 2.5 µM 0 | PIK4CA; 2.5 µM 0 | PIK4CB; 2.5 µM 0 | PLK1; 2.5 µM 0 | PRKAA1; 2.5 µM 0 | PRKCA; 2.5 µM 0 | PTK2; 2.5 µM 0 | PTK2B; 2.5 µM 0 | RAF1; 2.5 µM 0 | [1]; 2.5 µM 0 | RET; 2.5 µM 0 | [2]; 2.5 µM 0 | RIOK1; 2.5 µM 0 | RIPK1; 2.5 µM 0 | RIPK2; 2.5 µM 0 | ROR2; 2.5 µM 0 | RPS6KA1; 2.5 µM 0 | SPHK1; 2.5 µM 0 | SRC; 2.5 µM 0 | STK24; 2.5 µM 0

O=C(Nc1cnn2ccc(N3CCC[C@@H]3c3cc(F)ccc3F)nc12)N1CC[C@H](O)C1 [Larotrectinib sulfate]
inactive: PDPK1; 10 µM 0 | PIK4CA; 10 µM 0 | PIK4CB; 10 µM 0 | PLK1; 10 µM 0 | PRKAA1; 10 µM 0 | PRKCA; 10 µM 0 | PTK2; 10 µM 0 | PTK2B; 10 µM 0 | RAF1; 10 µM 0 | [1]; 10 µM 0 | RET; 10 µM 0 | [2]; 10 µM 0 | RIOK1; 10 µM 0 | RIPK1; 10 µM 0 | RIPK2; 10 µM 0 | ROR2; 10 µM 0 | RPS6KA1; 10 µM 0 | SPHK1; 10 µM 0 | SRC; 10 µM 0 | STK24; 10 µM 0

O=C(Nc1ccncc1)Nc1ccc(-c2nc(N3CCOCC3)nc(N3C4CCC3COC4)n2)cc1
inactive: PDPK1; 10 µM 0 | PIK4CA; 10 µM 0 | PIK4CB; 10 µM 0 | PLK1; 10 µM 0 | PRKAA1; 10 µM 0 | PRKCA; 10 µM 0 | PTK2; 10 µM 0 | PTK2B; 10 µM 0 | RAF1; 10 µM 0 | [1]; 10 µM 0 | RET; 10 µM 0 | [2]; 10 µM 0 | RIOK1; 10 µM 0 | RIPK1; 10 µM 0 | RIPK2; 10 µM 0 | ROR2; 10 µM 0 | RPS6KA1; 10 µM 0 | SPHK1; 10 µM 0 | SRC; 10 µM 0 | STK24; 10 µM 0

CC(=O)Nc1cccc(-n2c(=O)n(C3CC3)c(=O)c3c(Nc4ccc(I)cc4F)n(C)c(=O)c(C)c32)c1 [Trametinib (DMSO solvate)]
inactive: PDPK1; 10 µM 0 | PIK4CA; 10 µM 0 | PIK4CB; 10 µM 0 | PLK1; 10 µM 0 | PRKAA1; 10 µM 0 | PRKCA; 10 µM 0 | PTK2; 10 µM 0 | PTK2B; 10 µM 0 | RAF1; 10 µM 0 | [1]; 10 µM 0 | RET; 10 µM 0 | [2]; 10 µM 0 | RIOK1; 10 µM 0 | RIPK1; 10 µM 0 | RIPK2; 10 µM 0 | ROR2; 10 µM 0 | RPS6KA1; 10 µM 0 | SPHK1; 10 µM 0 | SRC; 10 µM 0 | STK24; 10 µM 0
